# Test results taken from EP3411040B1, “SMALL MOLECULES FOR MOUSE SATELLITE CELL PROLIFERATION” (dated 2026).
# The match of structure and compound is tentative.
# Assays:
# satellite cells [1] = assay: Proliferation in combination with TGF-beta inhibitor; settings: added to the cultures
# myoblast = settings: differentiation media comprising 5% horse serum; FIG. 39
# satellite cells [2] = assay: LINCS library screen for satellite cell proliferation (Hoechst 33342 high content imaging); settings: determined in dose response; Tg:Pax7-nGFP satellite cells, 4 days
smiles,measurement,setting,value
Cc1cccc(-c2n[nH]cc2-c2ccc3ncccc3n2)n1,"proliferation, TGF-beta inhibitor alone",satellite cells [1],slight increase in proliferation
N#CC(=Cc1ccc(O)c(O)c1)C(=O)NCc1ccccc1,myoblast differentiation,myoblast,drive myoblast differentiation
COc1nccc(-c2c(-c3ccc(F)cc3)ncn2C2CCC(O)CC2)n1 (stereo not drawn),Optimal treatment concentration,satellite cells [2],5 µM
